Consider one molecule from publication PMC9579038.

These are yes or no findings as the source states them, for the method shown. Binding seen in cells or lysates may run through a third protein. These calls come from enrichment with a bait or labelling near it, and not all partners need be listed.

The target of assay [1] is FMNL2-BirA* (formin-like 2 fused to BirA*) (human). Put plainly: proximity labelling; BioID screen with FMNL2-BirA* in HEK293T cells; SILAC-based quantitative mass spectrometry; filtered in silico for known background contaminants.
For assay [2] the target is unchanged. Nature of the assay: proximity labelling; FMNL2-BirA* transiently expressed in HEK293T/17 cells treated with biotin; biotinylated proteins isolated on streptavidin-agarose and immunoblotted for the endogenous proteins; FMNL2-mCherry cells as control. A general note: In western blotting, separated proteins are transferred to a membrane and probed.

B1: IRTKS (BAIAP2L1), endogenous (protein, UniProt Q9UHR4 1-511)
chain: MSRGPEEVNRLTESTYRNVMEQFNPGLRNLINLGKNYEKAVNAMILAGKAYYDGVAKIGEIATGSPVSTELGHVLIEISSTHKKLNESLDENFKKFHKEIIHELEKKIELDVKYMNATLKRYQTEHKNKLESLEKSQAELKKIRRKSQGSRNALKYEHKEIEYVETVTSRQSEIQKFIADGCKEALLEEKRRFCFLVDKHCGFANHIHYYHLQSAELLNSKLPRWQETCVDAIKVPEKIMNMIEEIKTPASTPVSGTPQASPMIERSNVVRKDYDTLSKCSPKMPPAPSGRAYTSPLIDMFNNPATAAPNSQRVNNSTGTSEDPSLQRSVSVATGLNMMKKQKVKTIFPHTAGSNKTLLSFAQGDVITLLIPEEKDGWLYGEHDVSKARGWFPSSYTKLLEENETEAVTVPTPSPTPVRSISTVNLSENSSVVIPPPDYLECLSMGAAADRRADSARTTSTFKAPASKPETAAPNDANGTAKPPFLSGENPFATVKLRPTVTNDRSAPIIR
With B1, the binding entry in assay [1] and in assay [2] was “binds” in each case.
